The target in assay [1] is T1, FLAG-tagged IncF (IncF_(FLAG)) (C. trachomatis (serovar of the cloned gene not stated)) (UniProt B0B9M5).
T1 sequence: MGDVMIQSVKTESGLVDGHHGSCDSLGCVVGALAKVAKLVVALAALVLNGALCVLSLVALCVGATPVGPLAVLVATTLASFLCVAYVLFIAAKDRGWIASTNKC
The assay can be described thus: co-IP; FLAG magnetic beads on clarified lysates of HeLa cells infected with C. trachomatis L2 CT226_(FLAG) or IncF_(FLAG) transformants (aTc at 7 hpi, lysed at 24 hpi; 50 mM Tris-HCl pH 7.4, 150 mM NaCl, 0.5% deoxycholate, 0.1% SDS, 1% Triton X-100), 2 h at 4°C, eluted with FLAG peptide; blot with anti-LRRF1; three replicates.

The target of assay [2] is T2, CT288 (BACTH fusion) (C. trachomatis serovar L2) (UniProt O84290).
T2 sequence: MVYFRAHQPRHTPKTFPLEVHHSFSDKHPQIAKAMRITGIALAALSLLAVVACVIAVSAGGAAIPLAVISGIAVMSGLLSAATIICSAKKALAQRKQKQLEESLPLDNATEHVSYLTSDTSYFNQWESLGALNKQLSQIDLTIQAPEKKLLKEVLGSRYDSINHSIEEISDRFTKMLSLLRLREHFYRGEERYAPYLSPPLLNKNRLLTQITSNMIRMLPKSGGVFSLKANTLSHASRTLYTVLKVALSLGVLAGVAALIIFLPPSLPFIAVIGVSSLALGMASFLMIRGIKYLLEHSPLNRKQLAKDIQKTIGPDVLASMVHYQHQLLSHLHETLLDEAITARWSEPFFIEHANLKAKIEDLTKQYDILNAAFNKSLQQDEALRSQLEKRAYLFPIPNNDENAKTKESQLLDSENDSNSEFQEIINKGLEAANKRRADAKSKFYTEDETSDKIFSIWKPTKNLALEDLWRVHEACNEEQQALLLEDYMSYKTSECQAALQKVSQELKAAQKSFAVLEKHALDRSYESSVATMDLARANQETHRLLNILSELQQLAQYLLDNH
The assay can be described thus: two-hybrid; bacterial adenylate cyclase two-hybrid (BACTH): pST25 and pUT18C fusions cotransformed into E. coli DHT1 (ΔcyaA), minimal medium with IPTG and X-Gal, 30°C 3 to 5 days; β-galactosidase assay in relative units; positive: more than five times the negative control.

These are yes or no findings as the source states them, for the method shown. For some assays here: In cells and extracts the contact can be indirect. Sequences can lack the tags named with a protein.

For the substance “leucine-rich repeat flightless-interacting protein 1 (endogenous) (human (endogenous in HeLa))”, in assay [1], the binding entry was “no binding”.
As to LRRF1 (BACTH fusion) (human), in assay [2], the binding result is recorded as “no binding”.
